# Assay results from the supplement of paper PMC6331611.
# ± gives the standard deviation of the averaged measurements. The full ranking holds about 1,600 compounds; the median of “normalized growth (OD600, IQM-normalized) in LPM” is about 1, and the lowest 2% start at about 0.014. The list shows a part of the results.
# System: Salmonella enterica serovar Typhimurium SL1344
# Experiment: normalized growth (OD600, IQM-normalized) in LPM (fraction of plate interquartile mean); higher = more bacterial growth (less inhibition)
# Conditions: LPM pH 5.8; 10 µM; 16 h
row,SMILES,normalized growth
1,CC(=O)NO,1.084 ± 0.0087
2,CC(=O)N[C@@H](CCC(N)=O)C(=O)O,1.22 ± 0.074
3,CC(C)(S)[C@@H](N)C(=O)O,1.083 ± 0.0063
4,O=C(O)C1CSCN1 (stereo not drawn),0.963 ± 0.037
5,CCC(=O)OCC(=O)[C@@]1(OC(=O)CC)[C@H](C)CC2C3C([C@@H](O)C[C@@]21C)[C@@]1(C)C=CC(=O)C=C1C[C@H]3Cl (stereo partly drawn),1.03 ± 0.019
6,O=C1O[C@H](CO)[C@@H](O)[C@H](O)[C@H]1O,1.01 ± 0.054
7,CCCCCCCCCCC[C@@H](C[C@@H]1OC(=O)[C@H]1CCCCCC)OC(=O)[C@H](CC(C)C)NC=O,0.762 ± 0.019
8,Nc1ncnc(Nc2ccc(Cl)cc2)n1,0.999 ± 0.071
9,CN1CCN(C2=Nc3cc(Cl)ccc3Nc3ccccc32)CC1,0.98 ± 0.04
10,CCCCCCCCCCCCCCCC(=O)NCCO,0.942 ± 0.046
11,CO[C@H]1O[C@@H]2O[C@@]3(C)CC[C@H]4[C@H](C)CC[C@@H]([C@H]1C)[C@@]24OO3,0.871 ± 0.097
12,NC12CC3CC(CC(C3)C1)C2,0.919 ± 0.034
13,Clc1ccc(COC(Cn2ccnc2)c2ccc(Cl)cc2Cl)c(Cl)c1 (stereo not drawn),1.05 ± 0.017
14,Cc1cc(=O)n(-c2ccccc2)n1C,0.9974 ± 0.0087
15,CC1CCc2c(N3CCC(O)CC3)c(F)cc3c(=O)c(C(=O)O)cn1c23 (stereo not drawn),0.0179 ± 0.013
16,O=C1Cc2cc(CCN3CCN(c4nsc5ccccc45)CC3)c(Cl)cc2N1,1.05 ± 0.027
17,CC(C)/N=c1\cc2n(-c3ccc(Cl)cc3)c3ccccc3nc-2cc1Nc1ccc(Cl)cc1,0.965 ± 0.029
18,CC(=O)N(O)CCCCCNC(=O)CCC(=O)N(O)CCCCCNC(=O)CCC(=O)N(O)CCCCCN,0.598 ± 0.051
19,CN1CC(=O)NC1=N,1.12 ± 0.032
20,CC(C)(C(=O)c1cccnc1)c1cccnc1,0.868 ± 0.035
21,C[C@]12CC[C@@H]3c4ccc(O)cc4CC[C@H]3[C@@H]1CC[C@@H]2OC(=O)CCC1CCCC1,1.07 ± 0.051
22,CN1CCc2cccc3c2[C@H]1Cc1ccc(O)c(O)c1-3,0.944 ± 0.063
23,CCC(NC(C)C)C(O)c1ccc(O)c(O)c1 (stereo not drawn),0.995 ± 0.035
24,CCC(Cc1c(I)cc(I)c(N)c1I)C(=O)O (stereo not drawn),1.12 ± 0.081

row,SMILES,normalized growth
1,CCOC(=O)C(C)(C)Oc1ccc(Cl)cc1,1.05 ± 0.05
2,C[C@@H]1[C@H](O)[C@@H](C)/C=C/C=C/C=C/C=C/C=C/C=C/C=C/[C@H](O[C@@H]2O[C@H](C)[C@@H](O)[C@H](N)[C@@H]2O)C[C@@H]2O[C@](O)(C[C@@H](O)C[C@@H](O)[C@H](O)CC[C@@H](O)C[C@@H](O)CC(=O)O[C@H]1C)C[C@H](O)[C@H]2C(=O)O,0.906 ± 0.041
3,CO[C@@]1(NC(=O)CSCC#N)C(=O)N2C(C(=O)O)=C(CSc3nnnn3C)CS[C@@H]21,0.957 ± 0.052
4,COc1ccc(CN(CCN(C)C)c2ncccn2)cc1,1.11 ± 0.038
5,NC(=O)c1ccc[n+]([C@@H]2O[C@H](COP(=O)([O-])OP(=O)(O)OC[C@H]3O[C@@H](n4cnc5c(N)ncnc54)[C@H](O)[C@@H]3O)[C@@H](O)[C@H]2O)c1,1.08 ± 0.019
6,NCC(=O)CCC(=O)O,0.864 ± 0.027
7,O=C(CCCN1CCC(O)(c2ccc(Cl)cc2)CC1)c1ccc(F)cc1,0.944 ± 0.032
8,O=C(O)/C=C/C(=O)O,0.948 ± 0.046
9,O=C(O)C[C@H](O)C[C@H](O)/C=C/c1c(C2CC2)nc2ccccc2c1-c1ccc(F)cc1,1.19 ± 0.13
10,Cc1ccc(C)c(OCCCC(C)(C)C(=O)O)c1,1.08 ± 0.015
11,CC1(C)[C@@H](O)CC[C@]2(C)[C@H]3C(=O)C=C4[C@@H]5C[C@@](C)(C(=O)O)CC[C@]5(C)CC[C@@]4(C)[C@]3(C)CC[C@@H]12,0.906 ± 0.073
12,C[C@]12CCC(=O)C=C1C=C[C@@H]1[C@@H]2CC[C@@]2(C)[C@H]1CC[C@@]21CCC(=O)O1,1.04 ± 0.036
13,COCCOC(=O)C1=C(C)NC(C)=C(C(=O)OC(C)C)C1c1cccc([N+](=O)[O-])c1 (stereo not drawn),0.944 ± 0.031
14,NCCS,1.09 ± 0.086
15,CN1C(C(=O)Nc2ccccn2)=C(O)c2ccccc2S1(=O)=O,1.069 ± 0.0048
16,COc1c(C)c2c(c(O)c1C/C=C(\C)CCC(=O)OCCN1CCOCC1)C(=O)OC2,1.01 ± 0.035
17,Cc1c(NC(C)C)c(=O)n(-c2ccccc2)n1C,0.981 ± 0.15
18,NCCc1cc[nH]n1,0.973 ± 0.14
19,COc1ccc([C@@H]2Sc3ccccc3N(CCN(C)C)C(=O)[C@@H]2OC(C)=O)cc1,0.958 ± 0.034
20,CN(C)CCN(Cc1ccc(Cl)cc1)c1ccccn1,0.988 ± 0.041
21,CCCCCCCCCCOc1cc2c(O)c(C(=O)OCC)cnc2cc1OCC,1.01 ± 0.03
22,CC(C[N+](C)(C)C)OC(N)=O (stereo not drawn),0.904 ± 0.054
23,O=C(O)CCCC[C@@H]1CCSS1,0.799 ± 0.033
24,Cc1cccc(Nc2ccncc2S(=O)(=O)NC(=O)NC(C)C)c1,1.09 ± 0.088

# 4 records drawn at random from those above:
row,SMILES,normalized growth
9,CN1CCN(C2=Nc3cc(Cl)ccc3Nc3ccccc32)CC1,0.98 ± 0.04
5,CCC(=O)OCC(=O)[C@@]1(OC(=O)CC)[C@H](C)CC2C3C([C@@H](O)C[C@@]21C)[C@@]1(C)C=CC(=O)C=C1C[C@H]3Cl (stereo partly drawn),1.03 ± 0.019
10,CCCCCCCCCCCCCCCC(=O)NCCO,0.942 ± 0.046
22,CN1CCc2cccc3c2[C@H]1Cc1ccc(O)c(O)c1-3,0.944 ± 0.063
